Source: PubChem BioAssay AID652243 (Drosophila RNAi Screening Center, 2013)

Test: 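Fly genes required for human androgen receptor driven transcription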 (primary screen)
System: Drosophila S2R+ cells
Reagent: long dsRNA against Drosophila genes
Time to read-out: 72 h (48 h, then 24 h hormone)
Conditions: synthetic androgen R1881 at 10 nM for 24 h
Measurement: 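Firefly light from an androgen-responsive reporter and Renilla control light per well, raw and unnormalised, for each of two replicates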
Reading the numbers: firefly reporter light: higher = more light from androgen-responsive reporter; Renilla control light: higher = more constitutive control signal (cell number, transfection)
Call rule: 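Hit when the log firefly-to-Renilla ratio dropped or increased by a fixed fold versus the mean of GFP or LacZ controls across duplicate plates; lowering cut given as 1.5 and as 3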
Meaning of the calls: active = hit: reporter lowered or raised; inactive = no hit
The deposit covers about 24,000 reagents; shown is an unselected part of those with a known target gene and a result. Over the whole deposit, 246 (1%) were called active. 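Plates not normalised; calls are printed but the firefly/Renilla ratio behind them is not deposited; fold cut for lowering reported inconsistently.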 Raw values are not corrected between plates. Not given: the amount of reagent.

What did the screen give for CLIP-190 (GeneID 35042) [DRSC03283]?
firefly reporter light, replicate 1: 5.19e5; firefly reporter light, replicate 2: 5.95e5; Renilla control light, replicate 1: 1.45e6; Renilla control light, replicate 2: 1.66e6; Outcome: inactive

For CLIP-190 (GeneID 35042) [DRSC30075], what was measured?
firefly reporter light, replicate 1: 8.02e5; firefly reporter light, replicate 2: 7.04e5; Renilla control light, replicate 1: 7.96e5; Renilla control light, replicate 2: 7.28e5; Outcome: inactive

With CstF50 (GeneID 43734) [DRSC15434], how do the results read?
firefly reporter light, replicate 1: 52961; firefly reporter light, replicate 2: 59229; Renilla control light, replicate 1: 4.44e5; Renilla control light, replicate 2: 4.52e5; Outcome: inactive

What is on record for CG12229 (GeneID 39945) [DRSC09868]?
firefly reporter light, replicate 1: 2.32e5; firefly reporter light, replicate 2: 2.42e5; Renilla control light, replicate 1: 2.41e6; Renilla control light, replicate 2: 2.22e6; Outcome: inactive

With CG12229 (GeneID 39945) [DRSC39266], how do the results read?
Outcome: inactive

How did the screen score CG12229 (GeneID 39945) [DRSC39304]?
Outcome: inactive

Taken from above:
Under “firefly reporter light, replicate 1”, CstF50 (GeneID 43734) [DRSC15434] reads 52961
Under “Renilla control light, replicate 2”, CLIP-190 (GeneID 35042) [DRSC30075] is entered as 7.28e5

More records follow:
For CG5938 (GeneID 43290) [DRSC15923], how do the results read?
firefly reporter light, replicate 1: 1.02e5; firefly reporter light, replicate 2: 83598; Renilla control light, replicate 1: 3.80e5; Renilla control light, replicate 2: 6.45e5; Outcome: inactive

Which result is listed for CG5938 (GeneID 43290) [DRSC24038]?
firefly reporter light, replicate 1: 4.54e5; firefly reporter light, replicate 2: 7.94e5; Renilla control light, replicate 1: 5.90e5; Renilla control light, replicate 2: 8.41e5; Outcome: inactive

With ari-2 (GeneID 37542) [DRSC04672], what does the deposit list?
firefly reporter light, replicate 1: 2.07e5; firefly reporter light, replicate 2: 2.66e5; Renilla control light, replicate 1: 1.89e6; Renilla control light, replicate 2: 1.18e6; Outcome: inactive

With ari-2 (GeneID 37542) [DRSC27896], what was measured?
firefly reporter light, replicate 1: 5.56e5; firefly reporter light, replicate 2: 3.90e5; Renilla control light, replicate 1: 1.95e6; Renilla control light, replicate 2: 1.41e6; Outcome: inactive

Which result is listed for CG34049 (GeneID 3885620) [DRSC38936]?
firefly reporter light, replicate 1: 7.52e5; firefly reporter light, replicate 2: 6.79e5; Renilla control light, replicate 1: 2.20e6; Renilla control light, replicate 2: 1.92e6; Outcome: inactive

With CG10132 (GeneID 35239) [DRSC02013], what was measured?
firefly reporter light, replicate 1: 8.60e5; firefly reporter light, replicate 2: 1.10e6; Renilla control light, replicate 1: 1.33e6; Renilla control light, replicate 2: 1.73e6; Outcome: inactive

With CG10132 (GeneID 35239) [DRSC27890], what does the deposit list?
firefly reporter light, replicate 1: 8.47e5; firefly reporter light, replicate 2: 5.30e5; Renilla control light, replicate 1: 2.94e6; Renilla control light, replicate 2: 1.66e6; Outcome: inactive

With kek4 (GeneID 34718) [DRSC03220], what was measured?
firefly reporter light, replicate 1: 6.58e5; firefly reporter light, replicate 2: 6.90e5; Renilla control light, replicate 1: 1.96e6; Renilla control light, replicate 2: 2.00e6; Outcome: inactive
